Data on one compound can be found in patent US20130197032A1, “[…] COMPOUNDS FOR THE TREATMENT OF NEUROLOGICAL AND […] DISORDERS” (A. CARLSSON RESEARCH AB, priority 2010, published 2013).

The chains behind the UniProt entries cited, without tags or fusion partners.
UniProt P28223, whole entry: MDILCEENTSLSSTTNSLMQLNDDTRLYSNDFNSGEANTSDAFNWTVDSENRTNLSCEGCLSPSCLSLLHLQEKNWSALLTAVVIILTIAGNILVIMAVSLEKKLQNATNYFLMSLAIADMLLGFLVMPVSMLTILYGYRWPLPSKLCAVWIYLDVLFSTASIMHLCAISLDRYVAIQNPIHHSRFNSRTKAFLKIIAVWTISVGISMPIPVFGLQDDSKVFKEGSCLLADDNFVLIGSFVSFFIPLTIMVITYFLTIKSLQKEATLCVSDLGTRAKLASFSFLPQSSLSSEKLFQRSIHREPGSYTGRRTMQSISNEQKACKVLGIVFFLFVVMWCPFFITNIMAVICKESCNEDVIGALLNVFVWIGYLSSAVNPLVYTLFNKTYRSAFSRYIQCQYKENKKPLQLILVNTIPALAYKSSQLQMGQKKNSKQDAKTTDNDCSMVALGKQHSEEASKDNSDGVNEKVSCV

Experiment [1] addresses T1, human 5-HT2A receptors (Homo sapiens, UniProt P28223). In words: R-SAT functional assay at 5-HT2A. Format: cell-based. The settings on record: R-SAT pEC50. Details: expressed in transfected cells; host or cells: NIH-3T3.
Experiment [2] has as its target T1, human 5-HT2A receptors. The experiment in a line: BRET2 beta-arrestin-2 recruitment assay at 5-HT2A. Format: cell-based. The arrangement: expressed in transfected cells; host or cells: HEK-293T. In general terms: Bioluminescence resonance energy transfer reports proximity on the nanometre scale.

What is called EC50 is the concentration at which the effect is half-maximal. A higher EC50 goes with a less potent agent. For `CCCN[C@H]1CCc2nc(N)sc2C1` [Pramipexole, (6S)—N^6-propyl-4,5,6,7-tetrahydro-1,3-benzothiazole-2,6-diamine], the EC50 in experiment [1] was 1.26 µM; in experiment [2], 20 µM.
